Measured values reported in patent publication US20160046678A1 (ZYNGENIA, published 2016).
Results are given in words; binding and its absence hold for the method and conditions named. Some binding calls cover weakened binding; strength is not graded here.

Amino acid sequences for entries named in this document (tags omitted). Residues count along the entry.
UniProt P08069, residues 31-932: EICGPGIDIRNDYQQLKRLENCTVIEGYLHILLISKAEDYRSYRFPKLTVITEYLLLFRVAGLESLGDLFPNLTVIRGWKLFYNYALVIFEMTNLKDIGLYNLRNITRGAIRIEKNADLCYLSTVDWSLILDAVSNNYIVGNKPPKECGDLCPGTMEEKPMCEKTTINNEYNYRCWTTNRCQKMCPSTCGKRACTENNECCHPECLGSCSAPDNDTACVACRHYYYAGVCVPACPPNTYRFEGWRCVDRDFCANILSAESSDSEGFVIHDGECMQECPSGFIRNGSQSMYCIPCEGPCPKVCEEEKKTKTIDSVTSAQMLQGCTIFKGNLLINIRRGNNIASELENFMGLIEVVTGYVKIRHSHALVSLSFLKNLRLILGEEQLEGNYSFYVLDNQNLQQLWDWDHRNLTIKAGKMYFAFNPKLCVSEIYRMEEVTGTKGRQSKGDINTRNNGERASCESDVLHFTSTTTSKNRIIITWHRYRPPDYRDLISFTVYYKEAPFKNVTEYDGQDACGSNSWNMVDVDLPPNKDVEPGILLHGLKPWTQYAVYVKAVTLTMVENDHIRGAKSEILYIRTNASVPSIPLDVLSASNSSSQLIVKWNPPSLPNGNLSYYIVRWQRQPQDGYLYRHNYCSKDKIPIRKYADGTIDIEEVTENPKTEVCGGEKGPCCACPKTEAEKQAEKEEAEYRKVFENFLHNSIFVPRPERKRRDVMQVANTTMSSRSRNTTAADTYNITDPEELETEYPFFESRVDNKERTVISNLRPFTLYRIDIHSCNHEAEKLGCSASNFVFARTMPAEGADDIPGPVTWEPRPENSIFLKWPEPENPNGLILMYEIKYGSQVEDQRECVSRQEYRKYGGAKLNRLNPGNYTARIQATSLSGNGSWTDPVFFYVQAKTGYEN

target: IGF1R (UniProt P08069); assay: MRD identification, Example 48

Binder | binding
IPLLCFEFVELCFDLT [IGF258] | binds
DDALCKEFPELCFQNV [IGF259] | binds
IPYLCLEFPVLCFQDT [IGF260] | binds
PHILCLEFAELCFDHL [IGF261] | binds
VPALCLEFKELCFHDR [IGF263] | binds
TPALCLEFWELCFDEA [IGF264] | binds
VPPLCMEFTELCFHDP [IGF265] | binds
AHPLCVEFSELCFNED [IGF266] | binds
IPMLCWEFTELCFDLN [IGF267] | binds
VPQLCLEFQELCFGEH [IGF268] | binds
VPSLCLEFPELCFNEA [IGF269] | binds
PHPLCLEFIELCFGTH [IGF270] | binds
IPFLCLEFEELCFHLD [IGF271] | binds
EHPLCLEFPELCFSHP [IGF272] | binds
PHYLCLEFSELCFDER [IGF273] | binds
TPFLCLEFHELCFGEH [IGF274] | binds
PQLLCLEFAELCFWDI [IGF275] | binds
PHALCREFHELCFEKS [IGF276] | binds
RLPLCVEFSELCFDLR [IGF277] | binds
VPALCWEFPELCFHYQ [IGF278] | binds
TPSLCLEFSELCFADG [IGF279] | binds
VHWLCAEFEELCFDQT [IGF280] | binds
LHFLCLEFQELCFDSN [IGF281] | binds
VPPLCLEFPELCFTDS [IGF282] | binds

Binder | binding
DHWLCIEFSELCFGKS [IGF283] | binds
EHPLCEEFKELCFGTN [IGF284] | binds
DWRLCQEFTELCFMDG [IGF285] | binds
YLSLCAEFTELCFHTE [IGF286] | binds
PPLLCFEFPELCFGYE [IGF287] | binds
DHKLCNEFPELCFHDV [IGF288] | binds
AHALCLEFLELCFEER [IGF289] | binds
IPFLCYEFQELCFGTL [IGF290] | binds
AELLCREFTELCFLRD [IGF291] | binds
APGLCIEFRELCFDEK [IGF292] | binds
YYALCAEFQELCFDEH [IGF293] | binds
VPLLCFEFPELCFGYQ [IGF294] | binds
VPSLCIEFSELCFDSP [IGF295] | binds
DYALCLEFRELCFGMN [IGF296] | binds
AHRLCQEFVELCFGET [IGF297] | binds
PHFLCMEFPVLCFNDS [IGF298] | binds
IPQLCLEFSELCFGMT [IGF299] | binds
RTDLCMEFYELCFHSD [IGF300] | binds
KPPLCEEFHELCFDLT [IGF301] | binds
PHKLCLEFRELCFDEL [IGF303] | binds
LHFLCVEFVELCFDEA [IGF304] | binds
VPRLCYEFPELCFHKQ [IGF305] | binds
PHPLCLEFEELCFTER [IGF306] | binds
AARLCSEFPELCFHAS [IGF307] | binds

Binder | binding
RHSLCIEFPELCFDEY [IGF308] | binds
AGRLCAEFHELCFGTN [IGF309] | binds
ASRLCMEFPELCFDRK [IGF310] | binds
HPALCVEFVELCFGHE [IGF311] | binds
IPPLCLEFQELCFGWD [IGF312] | binds
DDALCAEFNELCFEVT [IGF313] | binds
APPLCIEFEELCFGFL [IGF314] | binds
SHPLCLEFHELCFTDA [IGF315] | binds
IHPLCLEFTELCFHEV [IGF316] | binds
QEPLCVEFRELCFNED [IGF317] | binds
IPDLCREFEELCFGSK [IGF318] | binds
IHPLCKEFPELCFDVD [IGF319] | binds
GPLLCAEFVELCFGDD [IGF320] | binds
YPPLCLEFPELCFWNH [IGF321] | binds
SHNLCLEFVELCFGDV [IGF322] | binds
PPLLCLEFHELCFHIE [IGF323] | binds
AHVLCLEFHELCFDMG [IGF324] | binds
RPLLCYEFSELCFDIT [IGF325] | binds
HPRLCLEFSELCFDEM [IGF326] | binds
IPALCLEFSELCFSTS [IGF327] | binds
APSLCLEFIELCFDNM [IGF328] | binds
PHPLCREFPVLCFDDT [IGF329] | binds
VHPLCLEFAELCFVNY [IGF330] | binds
